Data published in PubChem BioAssay AID720504 (National Center for Advancing Translational Sciences (NCATS), 2013).
Screen size: about 360,000 compounds; about 10,000 (2.8%) were called active. Inconclusive means that the source gave no clear call. Such entries were picked first, then a sample of the others. The call rests on the fitted dose curve; in most records, active means well fitted inhibition curve with a large enough effect; inconclusive means small, poorly fitted or top-dose-only effect; inactive means flat fitted curve, though single readings scatter. A potency beside an inconclusive call is a rough fit, not a confirmed value.

Sequences of proteins named here, by UniProt entry; tags and fusion partners are left off.
UniProt P53350, whole entry, looked up: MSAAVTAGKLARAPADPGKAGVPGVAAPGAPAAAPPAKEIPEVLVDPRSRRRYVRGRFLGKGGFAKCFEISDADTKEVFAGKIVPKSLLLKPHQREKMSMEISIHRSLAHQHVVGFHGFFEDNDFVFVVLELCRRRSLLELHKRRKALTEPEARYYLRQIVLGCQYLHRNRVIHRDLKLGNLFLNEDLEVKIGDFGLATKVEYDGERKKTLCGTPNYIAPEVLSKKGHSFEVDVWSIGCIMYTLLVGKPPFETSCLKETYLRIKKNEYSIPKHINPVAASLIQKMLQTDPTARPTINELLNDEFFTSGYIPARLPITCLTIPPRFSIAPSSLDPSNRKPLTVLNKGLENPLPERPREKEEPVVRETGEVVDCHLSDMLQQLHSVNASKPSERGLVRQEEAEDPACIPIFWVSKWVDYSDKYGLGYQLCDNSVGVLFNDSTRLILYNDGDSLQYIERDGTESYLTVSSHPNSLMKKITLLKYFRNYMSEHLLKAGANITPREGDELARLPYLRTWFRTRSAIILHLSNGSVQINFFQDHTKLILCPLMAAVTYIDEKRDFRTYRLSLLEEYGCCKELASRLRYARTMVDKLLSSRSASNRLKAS

target: Serine/threonine-protein kinase PLK1 (Homo sapiens) (UniProt P53350); assay: qHTS for Inhibitors of PLK1-PDB (polo-like kinase 1 - polo-box domain): Primary Screen; conditions: Plk1 PBD binding of FITC phosphopeptide, fluorescence polarization; further: nearly all actives have a fitted effect of over 65% in size; on max response, negative = inhibition: series mostly up to about 57 µM
On the % scale 0 is the no-effect control and ±100 the full control effect; potency means the concentration at half of the fitted maximal effect.

Row | Structure (SMILES) | Potency | max response, negative = inhibition
1 | COc1ccc(CC(=O)N2CCc3cc(OC)c(OC)cc3C2C)c(OC)c1 (centres undefined) | inconclusive: 29.9 µM [inhibitor, partial curve] | 
2 | Cc1cc(C(=O)NCc2ccccc2Cl)n(-c2ccccc2)n1 | active: 26.7 µM | 
3 | O=C(O)[C@H]1CCCN1C(=O)c1ccccc1N1C(=O)[C@@H]2Cc3c([nH]c4ccccc34)C(c3cccc(Cl)c3)N2C1=O (some centres undefined) | inconclusive: 67 µM [inhibitor, partial curve] | 
4 | S=c1nc2c(n[nH]1)c1ccccc1n2CCc1ccccc1 | inconclusive: 21.2 µM [inhibitor, partial curve] | 
5 | O=C(Nc1ccc(Br)cc1)c1cc([N+](=O)[O-])cc([N+](=O)[O-])c1 | inconclusive: 26.7 µM [inhibitor, single point] | 
6 | COC(=O)CSCc1nc2ccccc2[nH]c1=O | active: 11.9 µM | 
7 | CCCCCCCc1ccc(C2NC(=S)NC3=C2C(=O)c2ccccc23)cc1 (centres undefined) | active: 21.2 µM | 
8 | CC1(C)c2ssc(=S)c2-c2ccccc2N1C(=O)c1ccco1 | active: 15 µM | 
9 | COc1ccc(Cl)cc1NC(=S)NNC(=O)C1(C)CC1(Cl)Cl (centres undefined) |  | inconclusive: -33.5% [inhibitor]
10 | CCCc1sc(N2CCCC(C(N)=O)C2)nc1-c1ccccc1 (centres undefined) | active: 23.8 µM | 
11 | CCN(CCNC(=O)CC1Oc2ccccc2NC1=O)c1ccccc1 (centres undefined) |  | inactive: -8.52%
12 | CCSc1cnc(-c2ccccc2)n1CC |  | inactive: 3.58%
13 | Cc1ccc(C)n1CCN1CCN(C(=O)CC#N)CC1 |  | inactive: -5.34%
14 | CCOn1c(=O)c(-c2cccs2)[n+]([O-])c2ccccc21 | inconclusive: 1.68 µM [inhibitor, partial curve] | 
15 | CCOC(=O)c1ccc2c(c1)NCc1cccc(OC)c1O2 |  | inactive: -4.67%
16 | O=c1c(O)cccc2cc(O)c(O)c(O)c12 | active: 8.44 µM | 
17 | O=C(Nc1ccccc1)C1=C(c2ccccc2)S(=O)(=O)CCS1(=O)=O | active: 5.32 µM | 
18 | O=C(NCC1CCCO1)C(=O)N/N=C/c1ccccc1C(=O)O (centres undefined) | active: 26.7 µM | 
19 | CCOC(=O)c1sc(NC(=O)c2cc(-c3ccccc3C)nc3ccccc23)c(C#N)c1C | active: 5.32 µM | 
20 | CC(=O)NC(CC(=O)OCC(=O)c1c(N)n(C)c(=O)n(C)c1=O)c1ccccc1 (centres undefined) | active: 23.8 µM | 
21 | O=C(CCCCl)OCc1cn(-c2ccc(Cl)cc2)nn1 | inconclusive: 26.7 µM [inhibitor, partial curve] | 
22 | CCOc1ccc(-c2n[nH]c(=S)n2/N=C/c2cc3c(cc2[N+](=O)[O-])OCO3)cc1 | inconclusive: 10.6 µM [inhibitor, partial curve] | 
23 | CCOc1ccc(NC(=O)Nc2ccc(Br)cn2)cc1 |  | inactive: 0.239%
24 | CCC(=O)/C=C1/Sc2ccc(OC)cc2N1CCO | active: 13.4 µM | 
25 | COc1cc(/C=C2/C(=N)N3N=C(CC(=O)N4CCOCC4)SC3=NC2=O)ccc1OCc1ccccc1F | inconclusive: 23.8 µM [inhibitor, single point] | 

Row | Structure (SMILES) | Potency | max response, negative = inhibition
26 | COC(=O)COc1ccc(C(C2C(=O)CC(C)(C)CC2=O)C2C(=O)CC(C)(C)CC2=O)cc1 | inconclusive: 10.6 µM [inhibitor, partial curve] | 
27 | O=C(NC1CCCCC1)c1c2c(nc3ccccc13)CCC2 |  | inactive: -12.7%
28 | Nc1nonc1NC(=O)CSc1nc2ccccc2s1 | inconclusive: 29.9 µM [inhibitor, single point] | 
29 | CC(C)(O)C#Cc1ccc(CN2CCCC(CO)(Cc3cccc(Cl)c3)C2)cc1 (centres undefined) | inconclusive: 26.7 µM [inhibitor, single point] | 
30 | CCOC(=O)c1c(N)sc(C(=O)Nc2ccccc2)c1C | active: 21.2 µM | 
31 | O=C(CCl)c1ccc2c(c1)CCN2C(=O)C1CCCCC1 | active: 0.752 µM | 
32 | CCCCN(C)c1c(C)nc2ccc(C(=O)NCc3cccs3)cn12 |  | inactive: -6.65%
33 | CC/C(=N/Nc1ccccc1Cl)c1cnnc(-c2ccccc2)n1 |  | inactive: -6.78%
34 | COc1cc(Sc2ccc(C)cc2)c(OC)cc1N | inconclusive: 37.7 µM [inhibitor, single point] | 
35 | Cc1cccc(N2CCN(C(c3ccccc3)c3nnnn3CC3CCCO3)CC2)c1C (centres undefined) |  | inconclusive: -32.4% [inhibitor]
36 | Cn1cccc1C(=O)C(=O)Nc1cc(Cl)cc(Cl)c1 | active: 2.99 µM | 
37 | CC1CCCC(C)N1C(=O)COC(=O)CSc1ccc([N+](=O)[O-])cc1 (centres undefined) | active: 18.9 µM | 
38 | Cc1ccc(S(=O)(=O)N2C[C@@H](C)[C@]3(C2)[C@H](O)[C@H](OC(=O)NC2CC2)C[C@H]2C(=O)N(c4ccccc4)C(=O)[C@H]23)cc1 | inconclusive: 13.4 µM [inhibitor, partial curve] | 
39 | CC1(C)OC(=O)N(c2ccccc2)C12C=Cc1c(ccc3ccccc13)O2 (centres undefined) | inconclusive: 26.7 µM [inhibitor, partial curve] | 
40 | O=S(=O)(c1ccc2oc3ccccc3c2c1)N1CCCC1 | inconclusive: 29.9 µM [inhibitor, single point] | 
41 | O=C(NNc1ccc(-c2csnn2)cc1)c1ccccc1C(F)(F)F |  | inactive: -22.6%
42 | O=C(c1ccc(Cl)cc1)[C@@H]1[C@@H]2C(=O)N(c3cccc4ccccc34)C(=O)[C@@H]2C2c3ccccc3C=NN21 (some centres undefined) | active: 23.8 µM | 
43 | COc1cccc2c1cc1c(=O)n(CC(=O)N3CCN(c4cccc(C)c4C)CC3)nc(C)n12 | inconclusive: 37.7 µM [inhibitor, single point] | 
44 | Cc1[nH]nc2c1C(c1ccc3c(c1)OCO3)C(C#N)=C(N)O2 (centres undefined) | inconclusive: 37.7 µM [inhibitor, single point] | 
45 | CC1(C)Cc2c(sc3c2c(=N)n(Cc2ccco2)c(=O)n3Cc2ccccc2)CO1 | inconclusive: 26.7 µM [inhibitor, single point] | 
46 | O=C(Nc1ccc(Nc2ccccc2)cc1)c1ccc(Br)o1 |  | inactive: -8.16%
47 | Cc1ccc(NC(=S)NCC2CCN(C(C)c3ccccc3)C2)cc1 (centres undefined) | inconclusive: 9.47 µM [inhibitor, partial curve] | 
48 | O=C1NN=C(CSc2n[nH]c(=S)s2)CS1 | inconclusive: 21.2 µM [inhibitor, single point] | 
49 | O=C(O)Cc1sc(Nc2ccccc2)nc1-c1ccc(Cl)cc1 | active: 21.2 µM | 
50 | O=C(O)CNC(=O)/C=C/c1ccc(Cl)cc1Cl |  | inconclusive: -30.8% [inhibitor]

Row | Structure (SMILES) | Potency | max response, negative = inhibition
51 | CCCCc1ccc(NC(=S)Nc2ccc(Cl)c(S(=O)(=O)N(C)C)c2)cc1 | inconclusive: 23.8 µM [inhibitor, partial curve] | 
52 | Cc1nc(SCC(=O)O)n[nH]1 |  | inactive: 3.48%
53 | COc1ccc(S(=O)(=O)Nc2cccc3c2O[C@@H](CN(C)CC2CC2)[C@@H](C)CN([C@@H](C)CO)C3=O)cc1 | inconclusive: 21.2 µM [inhibitor, partial curve] | 
54 | Nc1nc(Cl)nc2ccc(Br)cc12 | active: 16.8 µM | 
55 | Cc1ccc(S(=O)(=O)N(CC(=O)Nc2cccnc2)c2cccc([N+](=O)[O-])c2)cc1 |  | inactive: -9.47%
56 | Cc1cccc(C)c1N1C(=O)[C@@H]2C(c3ccccc3Cl)=NO[C@@H]2C1=O |  | inactive: -7.55%
57 | CCOC(=O)c1ccc(NC(=O)Nc2ccn(C)n2)cc1 | inconclusive: 18.9 µM [inhibitor, partial curve] | 
58 | COc1cccc(Cn2nnc(C(=O)NCc3ccc(F)cc3)c2N)c1 | inconclusive: 23.8 µM [inhibitor, single point] | 
59 | CN1CCN(C(=O)CSc2nc3ccc(NC(=O)c4ccccc4F)cc3s2)CC1 |  | inactive: 0.451%
60 | COc1cc2c(cc1OC)CN(C(=O)CSc1ccc(F)cc1)CC2 | inconclusive: 29.9 µM [inhibitor, partial curve] | 
61 | Cc1ccc(C(=O)Nc2ccc(N3CCN(C(=O)c4ccco4)CC3)cc2)cc1 | inconclusive: 26.7 µM [inhibitor, single point] | 
62 | CCOc1ccccc1/C=c1\sc2nc(-c3ccco3)nn2c1=O | inconclusive: 26.7 µM [inhibitor, partial curve] | 
63 | COc1ccc(NC(=O)CCS(=O)(=O)c2ccc3c(c2)oc(=O)n3C)cc1 |  | inconclusive: -31.1% [inhibitor]
64 | COc1ccc(C(=O)NNC2CC(=O)N(Cc3ccc(Cl)cc3)C2=O)cc1OC (centres undefined) |  | inactive: -8.56%
65 | O=C(CC(=O)c1ccccn1)c1ccccc1 |  | inactive: -5.01%
66 | Cc1cccc(C(C(=O)NC2CCCC2)N(C(=O)c2csnn2)C2CC2)c1 (centres undefined) |  | inactive: -0.49%
67 | CNc1nc(SC)nc(N(C#N)CC(=O)OC)n1 | inconclusive: 23.8 µM [inhibitor, single point] | 
68 | Cc1c(Cl)cnc(NC(=O)COC(=O)c2ccc(S(=O)(=O)NCc3ccco3)cc2)c1Cl | inconclusive: 11.9 µM [inhibitor, partial curve] | 
69 | O=C(O)C(c1ccccc1)N1C(=O)/C(=C\c2ccc(-c3ccccc3Cl)o2)SC1=S (centres undefined) | inconclusive: 4.23 µM [inhibitor, full curve, poor fit] | 
70 | Cc1ccccc1CNC(=O)CCc1ccccc1 |  | inconclusive: -33% [inhibitor]
71 | Cc1c(NC(=O)c2cnn3c(C(F)(F)F)cc(-c4ccco4)nc23)c(=O)n(-c2ccccc2)n1C |  | inconclusive: -35.4% [inhibitor]
72 | c1ccc2sc(Sc3ncnc4sccc34)nc2c1 |  | inactive: -6.71%
73 | COc1ccc(/C=N/Nc2cc(N(C)C)nc(N(C)C)n2)cc1 |  | inactive: -0.923%
74 | CC(=O)Nc1cc2nc(C)n(Cc3ccccc3[N+](=O)[O-])c2nc1C |  | inactive: 1.88%

Fetched one by one from the entries so far (3):
Row | Structure (SMILES) | Potency | max response, negative = inhibition
72 | c1ccc2sc(Sc3ncnc4sccc34)nc2c1 |  | inactive: -6.71%
69 | O=C(O)C(c1ccccc1)N1C(=O)/C(=C\c2ccc(-c3ccccc3Cl)o2)SC1=S (centres undefined) | inconclusive: 4.23 µM [inhibitor, full curve, poor fit] | 
74 | CC(=O)Nc1cc2nc(C)n(Cc3ccccc3[N+](=O)[O-])c2nc1C |  | inactive: 1.88%
